Test results published in patent US20180282402A1.
These are yes or no findings as the source states them, for the method shown. Some binding calls cover weakened binding; strength is not graded here. For some of these results: Tags and fused reporters may be left off the sequences shown.

Key:
Fc-HRS(2-60) (human) [1] = biological target: T1, Fc-HRS(2-60) (human) (UniProt P12081); experiment: SPR; Fc-HRS(2-60) immobilized, 50 nM analyte
T1 sequence: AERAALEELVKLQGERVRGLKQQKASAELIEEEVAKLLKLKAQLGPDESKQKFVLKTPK

Fc-HRS(2-60) (human) [2] = biological target: T1, Fc-HRS(2-60) (human); experiment: SPR; Fc-HRS(2-60) immobilized
Fc-HRS(2-60) (human) [3] = biological target: T1, Fc-HRS(2-60) (human); experiment: SPR: 50 nM mouse NRP2 as analyte over immobilized Fc-HRS(2-60) [panel A]
[4] = biological target: T2, endogenous soluble human NRP2 (serum) (human) (UniProt O60462); experiment: HRS:NRP2 complex ELISA (MSD) on human serum: capture with an NRP2 mAb, detection with the HRS N-terminal mAb 12H6
T2 sequence (looked up): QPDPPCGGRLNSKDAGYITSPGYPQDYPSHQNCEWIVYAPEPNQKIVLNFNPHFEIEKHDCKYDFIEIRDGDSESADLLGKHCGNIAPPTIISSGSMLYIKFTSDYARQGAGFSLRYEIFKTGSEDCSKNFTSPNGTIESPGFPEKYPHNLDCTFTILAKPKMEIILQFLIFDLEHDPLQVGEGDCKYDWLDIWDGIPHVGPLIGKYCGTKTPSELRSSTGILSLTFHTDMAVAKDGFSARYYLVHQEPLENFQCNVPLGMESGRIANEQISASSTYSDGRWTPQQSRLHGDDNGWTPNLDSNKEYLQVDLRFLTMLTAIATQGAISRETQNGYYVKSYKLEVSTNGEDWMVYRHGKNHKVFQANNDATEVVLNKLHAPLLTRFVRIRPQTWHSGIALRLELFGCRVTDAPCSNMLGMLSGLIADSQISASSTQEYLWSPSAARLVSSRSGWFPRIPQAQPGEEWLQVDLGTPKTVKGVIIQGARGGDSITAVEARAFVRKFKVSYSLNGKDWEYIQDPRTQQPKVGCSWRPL

[5] = biological target: T2, endogenous soluble human NRP2 (serum) (human); experiment: HRS:NRP2 complex ELISA (MSD) on human serum: capture with the HRS N-terminal mAb 12H6, detection with an NRP2 antibody
[6] = biological target: T2, endogenous soluble human NRP2 (serum) (human); experiment: HRS:NRP2 complex ELISA (MSD) on human serum: capture with an NRP2 mAb, detection with the HRS C-terminal mAb 13C8
[7] = biological target: T2, endogenous soluble human NRP2 (serum) (human); experiment: HRS:NRP2 complex ELISA on human serum (capture of one partner, detection of the other)
[8] = biological target: T2, endogenous soluble human NRP2 (serum) (human); experiment: HRS:NRP2 complex ELISA (MSD) on human serum: capture with the HRS C-terminal mAb 13C8, detection with an NRP2 antibody
[9] = biological target: T2, endogenous soluble human NRP2 (serum) (human); experiment: HRS:NRP2 complex ELISA (MSD) on human serum: capture with an NRP2 mAb, detection with the HRS N-terminal antibody HARS_NT
[10] = biological target: NRP2-Fc (R&D Systems #2215-N2) (human) (UniProt O60462); experiment: SPR; column Binding to NRP2 observed by SPR
[11] = biological target: NRP2-Fc (R&D Systems #2215-N2) (human) (UniProt O60462); experiment: SPR

Measured: binding

B1: Mouse NRP2-Fc (R&D Systems #7988-N2) (Fc fusion, UniProt O35375 23-864, looked up, not shown: a dimerising Fc or GST)
chain: QQDPPCGGRLNSKDAGYITSPGYPQDYPSHQNCEWIVYAPEPNQKIVLNFNPHFEIEKHDCKYDFIEIRDGDSESADLLGKHCGNIAPPTIISSGSVLYIKFTSDYARQGAGFSLRYEIFKTGSEDCSKNFTSPNGTIESPGFPEKYPHNLDCTFTILAKPRMEIILQFLTFDLEHDPLQVGEGDCKYDWLDIWDGIPHVGPLIGKYCGTKTPSKLRSSTGILSLTFHTDMAVAKDGFSARYYLIHQEPPENFQCNVPLGMESGRIANEQISASSTFSDGRWTPQQSRLHGDDNGWTPNLDSNKEYLQVDLRFLTMLTAIATQGAISRETQKGYYVKSYKLEVSTNGEDWMVYRHGKNHKIFQANNDATEVVLNKLHMPLLTRFIRIRPQTWHLGIALRLELFGCRVTDAPCSNMLGMLSGLIADTQISASSTREYLWSPSAARLVSSRSGWFPRNPQAQPGEEWLQVDLGTPKTVKGVIIQGARGGDSITAVEARAFVRKFKVSYSLNGKDWEYIQDPRTQQTKLFEGNMHYDTPDIRRFDPVPAQYVRVYPERWSPAGIGMRLEVLGCDWTDSKPTVETLGPTVKSEETTTPYPMDEDATECGENCSFEDDKDLQLPSGFNCNFDFPEETCGWVYDHAKWLRSTWISSANPNDRTFPDDKNFLKLQSDGRREGQYGRLISPPVHLPRSPVCMEFQYQAMGGHGVALQVVREASQESKLLWVIREDQGSEWKHGRIILPSYDMEYQIVFEGVIGKGRSGEISIDDIRISTDVPLENCMEPISAFAGEDFKVDIPETHGGEGYEDEIDDEYEGDWSNSSSSTSGAGDPSSGKEKSWLYTLDP
binds: Fc-HRS(2-60) (human) [1] | Fc-HRS(2-60) (human) [2] | Fc-HRS(2-60) (human) [3]

B2: endogenous circulating human HRS (serum) (enzyme)
chain: AERAALEELVKLQGERVRGLKQQKASAELIEEEVAKLLKLKAQLGPDESKQKFVLKTPKGTRDYSPRQMAVREKVFDVIIRCFKRHGAEVIDTPVFELKETLMGKYGEDSKLIYDLKDQGGELLSLRYDLTVPFARYLAMNKLTNIKRYHIAKVYRRDNPAMTRGRYREFYQCDFDIAGNFDPMIPDAECLKIMCEILSSLQIGDFLVKVNDRRILDGMFAICGVSDSKFRTICSSVDKLDKVSWEEVKNEMVGEKGLAPEVADRIGDYVQQHGGVSLVEQLLQDPKLSQNKQALEGLGDLKLLFEYLTLFGIDDKISFDLSLARGLDYYTGVIYEAVLLQTPAQAGEEPLGVGSVAAGGRYDGLVGMFDPKGRKVPCVGLSIGVERIFSIVEQRLEALEEKIRTTETQVLVASAQKKLLEERLKLVSELWDAGIKAELLYKKNPKLLNQLQYCEEAGIPLVAIIGEQELKDGVIKLRSVTSREEVDVRREDLVEEIKRRTGQPLCIC
binds: [4] | [5] | [6] | [7] | [8] | [9]

B3: SEMA3C-Fc (R&D Systems #5570-S3) (Fc fusion, human, UniProt Q99985 21-751, looked up, not shown: a dimerising Fc or GST)
chain: GSSQPQARVYLTFDELRETKTSEYFSLSHHPLDYRILLMDEDQDRIYVGSKDHILSLNINNISQEALSVFWPASTIKVEECKMAGKDPTHGCGNFVRVIQTFNRTHLYVCGSGAFSPVCTYLNRGRRSEDQVFMIDSKCESGKGRCSFNPNVNTVSVMINEELFSGMYIDFMGTDAAIFRSLTKRNAVRTDQHNSKWLSEPMFVDAHVIPDGTDPNDAKVYFFFKEKLTDNNRSTKQIHSMIARICPNDTGGLRSLVNKWTTFLKARLVCSVTDEDGPETHFDELEDVFLLETDNPRTTLVYGIFTTSSSVFKGSAVCVYHLSDIQTVFNGPFAHKEGPNHQLISYQGRIPYPRPGTCPGGAFTPNMRTTKEFPDDVVTFIRNHPLMYNSIYPIHKRPLIVRIGTDYKYTKIAVDRVNAADGRYHVLFLGTDRGTVQKVVVLPTNNSVSGELILEELEVFKNHAPITTMKISSKKQQLYVSSNEGVSQVSLHRCHIYGTACADCCLARDPYCAWDGHSCSRFYPTGKRRSRRQDVRHGNPLTQCRGFNLKAYRNAAEIVQYGVKNNTTFLECAPKSPQASIKWLLQKDKDRRKEVKLNERIIATSQGLLIRSVQGSDQGLYHCIATENSFKQTIAKINFKVLDSEMVAVVTDKWSPWTWASSVRALPFHPKDIMGAFSHSEMQMINQYCKDTRQQHQQGDESQKMRGDYGKLKALINSRKSRNRRNQLPES
binds: [10] | [11]

B4: Mouse SEMA3F-Fc (R&D Systems #3237-S3) (Fc fusion, UniProt O88632 19-785, looked up, not shown: a dimerising Fc or GST)
chain: ATPIQDQLPATPRVRLSFKELKATGTAHFFNFLLNTTDYRILLKDEDHDRMYVGSKDYVLSLDLHDINREPLIIHWAASPQRIEECILSGKDGNGECGNFVRLIQPWNRTHLYVCGTGAYNPMCTYVNRGRRAQALPWTQMQVVRGRGSRATDGADRPTPTAPRQDYIFYLEPEKLESGKGKCPYDPKLDTASALINEELYAGVYIDFMGTDAAIFRTLGKQTAMRTDQYNSRWLNDPSFIHAELIPDSAERNDDKLYFFFRERSAEAPQNPAVYARIGRICLNDDGGHCCLVNKWSTFLKARLVCSVPGEDGIETHFDELQDVFVQQTQDVRNPVIYAVFTSSGSVFRGSAVCVYSMADIRMVFNGPFAHKEGPNYQWMPFSGKMPYPRPGTCPGGTFTPSMKSTKDYPDEVINFMRTHPLMYQAVYPLQRRPLVVRTGAPYRLTTVAVDQVDAADGRYEVLFLGTDRGTVQKVIVLPKDDQEVEELMLEEVEVFKEPAPVKTMTISSKRQQLYVASAVGVTHLSLHRCQAYGAACADCCLARDPYCAWDGQACSRYTASSKRRSRRQDVRHGNPIRQCRGFNSNANKNAVESVQYGVAGSAAFLECQPRSPQATVKWLFQRDPSDRRREIRAEDRFLRTEQGLLLRALQLGDRGLYSCTATENNFKHIVTRVQLHVLGRDAVHAALFPPLAVSVPPPPGTGPPTPPYQELAQLLAQPEVGLIHQYCQGYWRHVPPRPREAPGALRPPELQDQKKPRNRRHHPPDT
binds: [10] | [11]
